From patent US8566040

Chains of the proteins cited; added tags and fusions are not shown. Residues count along the entry.
UniProt P17255, 284-737: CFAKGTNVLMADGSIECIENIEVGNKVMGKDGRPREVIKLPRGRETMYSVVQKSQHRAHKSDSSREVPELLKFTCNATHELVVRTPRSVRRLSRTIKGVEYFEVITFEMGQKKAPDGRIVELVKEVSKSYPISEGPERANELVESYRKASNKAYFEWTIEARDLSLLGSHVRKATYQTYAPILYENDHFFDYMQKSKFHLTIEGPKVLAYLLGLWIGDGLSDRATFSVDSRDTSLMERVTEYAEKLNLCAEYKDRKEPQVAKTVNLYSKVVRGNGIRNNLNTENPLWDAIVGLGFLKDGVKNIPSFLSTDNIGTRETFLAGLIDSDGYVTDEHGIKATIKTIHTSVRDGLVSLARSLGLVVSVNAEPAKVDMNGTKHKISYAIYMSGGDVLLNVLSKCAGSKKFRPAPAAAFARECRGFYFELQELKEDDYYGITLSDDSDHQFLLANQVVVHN

Tests used:
PI-SceI = PI-SceI (UniProt P17255); test: enzyme reaction in vitro; details: purified recombinant protein, protein details: commercially available
PI-PspI = target: T1, PI-PspI (UniProt Q51334); test: enzyme reaction in vitro; details: purified recombinant protein, protein details: commercially available
T1 sequence (limits assumed): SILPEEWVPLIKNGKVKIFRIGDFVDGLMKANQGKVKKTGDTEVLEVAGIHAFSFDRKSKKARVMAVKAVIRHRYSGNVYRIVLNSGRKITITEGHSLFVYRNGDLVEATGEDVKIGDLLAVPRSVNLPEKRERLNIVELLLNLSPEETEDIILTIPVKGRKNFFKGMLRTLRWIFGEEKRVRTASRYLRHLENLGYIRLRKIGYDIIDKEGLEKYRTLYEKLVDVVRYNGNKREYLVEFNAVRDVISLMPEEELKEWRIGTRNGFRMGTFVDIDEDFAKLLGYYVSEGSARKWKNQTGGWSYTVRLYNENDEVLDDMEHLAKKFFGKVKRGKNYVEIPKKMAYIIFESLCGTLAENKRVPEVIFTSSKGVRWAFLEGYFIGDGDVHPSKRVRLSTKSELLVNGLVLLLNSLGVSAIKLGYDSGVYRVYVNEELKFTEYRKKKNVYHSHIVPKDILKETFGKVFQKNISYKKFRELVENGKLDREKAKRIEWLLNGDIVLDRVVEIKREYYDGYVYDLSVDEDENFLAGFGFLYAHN

[1] = target cloned in pGEM-T Easy, linearized vector

ATCTATGTCGGGTGCGGAGAAAGAGGTAATGAAATGGCA (double strand) [PI-SceI wild-type target]
activity on this sequence (PI-SceI; [1]): active

TGGCAAACAGCTATTATGGGTATTATGGGTA (double strand) [PI-PspI wild-type target]
activity on this sequence (PI-PspI; [1]): active

ATCTATGTCGGGTGCGGAGGAAGAGGTAATGAAATGGCA (double strand) [PI-SceI missense target]
activity on this sequence (PI-SceI; cleavage eliminated entirely by single missense mutation, variant of PI-SceI wild-type target): not active

TAGCGAATAGTTACTACGGATACTACGGATA (double strand) [PI-PspI synonymous target]
activity on this sequence (PI-PspI; efficiently cleaved, variant of PI-PspI wild-type target): active

ATTTACGTTGGATGTGGGGAGAGGGGCAACGAGATAGCG (double strand) [PI-SceI 13-transition target]
activity on this sequence (PI-SceI; cleaved as efficiently as cognate target, variant of PI-SceI wild-type target): active

For some assays here: Negatives hold for the conditions tested. For some assays here: Tags and fusion partners may be left off the protein sequences shown.
